Data as given in article PMC4474554 (PLoS ONE, 2015).

Test system: PC-9
Assay: MTS assay, PC-9
Settings: Homo sapiens, PC-9, read-out: each IC50

In the case of `COc1cc2ncnc(Nc3ccc(F)c(Cl)c3)c2cc1OCCCN1CCOCC1` [Gefitinib, gefitinib, reference compound], the IC50 is reported as 3.1 nM.
